In the supplement of paper PMC12819154, “High-throughput peptide-centric local stability assay extends protein–ligand identification to membrane proteins, tissues and bacteria” (Nature Structural & Molecular Biology, 2025):
The other results are listed elsewhere or left out. Small differences around the control level are noise.

By UniProt entry, the sequences of proteins in these tests, tags left out. Where a name states a change or a piece, a line headed by the entry shows the natural chain unless it says otherwise.
UniProt Q9NP66: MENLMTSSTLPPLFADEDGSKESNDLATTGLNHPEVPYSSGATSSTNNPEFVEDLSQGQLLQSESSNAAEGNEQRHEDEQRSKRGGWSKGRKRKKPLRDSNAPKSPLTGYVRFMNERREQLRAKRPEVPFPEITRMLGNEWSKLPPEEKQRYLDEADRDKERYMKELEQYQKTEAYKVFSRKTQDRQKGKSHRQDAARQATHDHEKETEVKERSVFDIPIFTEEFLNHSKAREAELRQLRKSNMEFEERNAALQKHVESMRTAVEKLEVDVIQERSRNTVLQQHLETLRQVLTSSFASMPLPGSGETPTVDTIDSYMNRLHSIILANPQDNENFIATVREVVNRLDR
UniProt Q9H857: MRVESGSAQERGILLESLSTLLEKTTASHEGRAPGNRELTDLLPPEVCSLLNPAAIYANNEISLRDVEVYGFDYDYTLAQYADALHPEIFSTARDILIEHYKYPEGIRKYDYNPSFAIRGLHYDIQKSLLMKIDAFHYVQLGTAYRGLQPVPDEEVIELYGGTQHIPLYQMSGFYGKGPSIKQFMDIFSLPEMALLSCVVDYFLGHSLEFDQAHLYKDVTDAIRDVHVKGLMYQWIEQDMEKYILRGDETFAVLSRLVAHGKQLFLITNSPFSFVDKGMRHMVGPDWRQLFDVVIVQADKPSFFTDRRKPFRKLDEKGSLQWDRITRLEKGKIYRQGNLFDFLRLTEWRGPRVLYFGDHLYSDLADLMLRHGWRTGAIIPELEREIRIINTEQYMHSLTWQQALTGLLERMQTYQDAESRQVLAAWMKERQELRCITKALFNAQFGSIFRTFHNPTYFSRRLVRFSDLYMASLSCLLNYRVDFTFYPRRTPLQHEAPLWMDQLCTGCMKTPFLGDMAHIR
UniProt Q9HCI7: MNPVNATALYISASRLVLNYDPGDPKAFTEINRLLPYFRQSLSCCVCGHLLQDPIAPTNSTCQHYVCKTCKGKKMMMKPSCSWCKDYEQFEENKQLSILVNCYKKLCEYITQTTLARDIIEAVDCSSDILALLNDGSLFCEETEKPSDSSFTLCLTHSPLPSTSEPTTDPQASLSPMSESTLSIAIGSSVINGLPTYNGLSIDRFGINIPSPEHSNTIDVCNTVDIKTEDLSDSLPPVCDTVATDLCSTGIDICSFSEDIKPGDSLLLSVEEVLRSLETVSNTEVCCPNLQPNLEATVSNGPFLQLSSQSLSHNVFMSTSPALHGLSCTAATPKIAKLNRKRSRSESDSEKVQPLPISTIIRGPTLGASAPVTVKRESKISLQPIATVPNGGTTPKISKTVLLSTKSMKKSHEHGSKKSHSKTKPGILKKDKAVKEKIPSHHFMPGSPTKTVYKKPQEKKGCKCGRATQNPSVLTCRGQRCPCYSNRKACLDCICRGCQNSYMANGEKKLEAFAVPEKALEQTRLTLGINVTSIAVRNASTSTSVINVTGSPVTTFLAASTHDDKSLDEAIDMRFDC
UniProt Q9NP31, whole entry, looked up: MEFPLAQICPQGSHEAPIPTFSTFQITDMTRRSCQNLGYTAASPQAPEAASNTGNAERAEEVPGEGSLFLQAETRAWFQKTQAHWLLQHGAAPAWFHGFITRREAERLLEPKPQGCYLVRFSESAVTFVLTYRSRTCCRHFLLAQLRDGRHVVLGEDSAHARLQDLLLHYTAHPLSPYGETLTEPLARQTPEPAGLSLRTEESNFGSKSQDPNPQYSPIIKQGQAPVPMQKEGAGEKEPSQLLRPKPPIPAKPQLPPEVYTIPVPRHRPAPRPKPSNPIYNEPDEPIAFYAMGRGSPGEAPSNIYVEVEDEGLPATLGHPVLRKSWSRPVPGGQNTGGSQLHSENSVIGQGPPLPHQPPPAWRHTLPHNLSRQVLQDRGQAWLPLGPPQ
UniProt Q9NP79: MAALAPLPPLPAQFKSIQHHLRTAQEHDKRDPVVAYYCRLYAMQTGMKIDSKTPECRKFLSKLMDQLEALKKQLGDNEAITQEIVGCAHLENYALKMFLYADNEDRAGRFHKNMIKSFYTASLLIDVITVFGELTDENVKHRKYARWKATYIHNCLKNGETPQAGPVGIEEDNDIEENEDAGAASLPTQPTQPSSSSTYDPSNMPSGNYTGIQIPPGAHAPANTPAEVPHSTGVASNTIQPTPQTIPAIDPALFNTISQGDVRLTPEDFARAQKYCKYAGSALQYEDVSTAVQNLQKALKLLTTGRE
UniProt Q9HCG8: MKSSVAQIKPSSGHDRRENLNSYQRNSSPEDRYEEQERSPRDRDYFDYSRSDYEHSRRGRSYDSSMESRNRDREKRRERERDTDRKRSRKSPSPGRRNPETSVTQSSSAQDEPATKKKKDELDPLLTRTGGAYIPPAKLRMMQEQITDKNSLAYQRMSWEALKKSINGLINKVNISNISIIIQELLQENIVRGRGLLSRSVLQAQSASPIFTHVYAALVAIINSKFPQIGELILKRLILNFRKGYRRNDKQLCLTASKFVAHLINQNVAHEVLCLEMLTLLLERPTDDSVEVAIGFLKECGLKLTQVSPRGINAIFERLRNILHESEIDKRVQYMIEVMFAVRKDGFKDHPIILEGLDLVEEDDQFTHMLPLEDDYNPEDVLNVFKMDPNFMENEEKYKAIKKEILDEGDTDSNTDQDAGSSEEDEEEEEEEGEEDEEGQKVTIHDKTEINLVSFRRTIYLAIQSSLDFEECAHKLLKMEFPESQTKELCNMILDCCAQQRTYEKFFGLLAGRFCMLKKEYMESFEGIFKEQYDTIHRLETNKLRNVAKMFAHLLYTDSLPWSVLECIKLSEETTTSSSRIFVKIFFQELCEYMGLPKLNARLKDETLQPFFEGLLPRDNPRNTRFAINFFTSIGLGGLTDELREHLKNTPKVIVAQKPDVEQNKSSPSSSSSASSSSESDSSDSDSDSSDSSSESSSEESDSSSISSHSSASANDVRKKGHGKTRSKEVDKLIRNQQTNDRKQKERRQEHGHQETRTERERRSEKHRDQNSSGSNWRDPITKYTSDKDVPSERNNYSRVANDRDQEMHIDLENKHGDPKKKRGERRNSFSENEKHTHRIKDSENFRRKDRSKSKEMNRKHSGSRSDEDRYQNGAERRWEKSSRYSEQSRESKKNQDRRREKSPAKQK
UniProt Q9H4Z2: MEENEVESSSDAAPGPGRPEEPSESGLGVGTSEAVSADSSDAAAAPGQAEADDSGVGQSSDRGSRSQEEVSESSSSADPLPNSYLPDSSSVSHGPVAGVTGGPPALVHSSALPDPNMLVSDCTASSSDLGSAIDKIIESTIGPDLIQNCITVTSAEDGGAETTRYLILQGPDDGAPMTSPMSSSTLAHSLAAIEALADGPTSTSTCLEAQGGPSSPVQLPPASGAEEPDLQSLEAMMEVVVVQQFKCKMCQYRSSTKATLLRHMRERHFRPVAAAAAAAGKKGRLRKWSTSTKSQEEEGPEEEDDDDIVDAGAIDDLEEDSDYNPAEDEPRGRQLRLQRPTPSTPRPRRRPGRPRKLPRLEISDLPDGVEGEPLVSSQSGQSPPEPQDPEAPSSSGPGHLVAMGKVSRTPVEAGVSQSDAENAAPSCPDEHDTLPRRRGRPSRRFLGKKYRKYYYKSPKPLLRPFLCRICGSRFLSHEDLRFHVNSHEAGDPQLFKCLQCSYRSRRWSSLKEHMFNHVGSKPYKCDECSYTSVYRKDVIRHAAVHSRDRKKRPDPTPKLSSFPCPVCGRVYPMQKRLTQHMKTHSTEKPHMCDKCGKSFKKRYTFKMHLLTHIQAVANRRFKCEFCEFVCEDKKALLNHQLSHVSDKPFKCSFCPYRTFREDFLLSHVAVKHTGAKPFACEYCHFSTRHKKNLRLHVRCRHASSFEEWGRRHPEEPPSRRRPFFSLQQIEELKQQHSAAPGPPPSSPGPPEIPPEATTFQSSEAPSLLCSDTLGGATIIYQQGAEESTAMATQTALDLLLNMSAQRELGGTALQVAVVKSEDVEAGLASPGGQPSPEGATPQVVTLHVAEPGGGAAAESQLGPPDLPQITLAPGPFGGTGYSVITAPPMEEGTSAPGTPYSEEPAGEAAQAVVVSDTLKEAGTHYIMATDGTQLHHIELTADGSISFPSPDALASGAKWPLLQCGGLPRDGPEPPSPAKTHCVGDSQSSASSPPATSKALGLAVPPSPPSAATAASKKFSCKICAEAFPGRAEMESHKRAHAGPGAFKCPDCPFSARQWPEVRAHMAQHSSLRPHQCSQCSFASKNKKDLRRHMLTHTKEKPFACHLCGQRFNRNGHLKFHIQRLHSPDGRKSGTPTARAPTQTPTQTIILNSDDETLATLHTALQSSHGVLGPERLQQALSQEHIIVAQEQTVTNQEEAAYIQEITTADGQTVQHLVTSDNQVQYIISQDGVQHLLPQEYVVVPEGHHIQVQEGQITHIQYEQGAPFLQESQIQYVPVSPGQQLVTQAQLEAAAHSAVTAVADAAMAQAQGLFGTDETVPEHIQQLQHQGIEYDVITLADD
UniProt Q9H5L6: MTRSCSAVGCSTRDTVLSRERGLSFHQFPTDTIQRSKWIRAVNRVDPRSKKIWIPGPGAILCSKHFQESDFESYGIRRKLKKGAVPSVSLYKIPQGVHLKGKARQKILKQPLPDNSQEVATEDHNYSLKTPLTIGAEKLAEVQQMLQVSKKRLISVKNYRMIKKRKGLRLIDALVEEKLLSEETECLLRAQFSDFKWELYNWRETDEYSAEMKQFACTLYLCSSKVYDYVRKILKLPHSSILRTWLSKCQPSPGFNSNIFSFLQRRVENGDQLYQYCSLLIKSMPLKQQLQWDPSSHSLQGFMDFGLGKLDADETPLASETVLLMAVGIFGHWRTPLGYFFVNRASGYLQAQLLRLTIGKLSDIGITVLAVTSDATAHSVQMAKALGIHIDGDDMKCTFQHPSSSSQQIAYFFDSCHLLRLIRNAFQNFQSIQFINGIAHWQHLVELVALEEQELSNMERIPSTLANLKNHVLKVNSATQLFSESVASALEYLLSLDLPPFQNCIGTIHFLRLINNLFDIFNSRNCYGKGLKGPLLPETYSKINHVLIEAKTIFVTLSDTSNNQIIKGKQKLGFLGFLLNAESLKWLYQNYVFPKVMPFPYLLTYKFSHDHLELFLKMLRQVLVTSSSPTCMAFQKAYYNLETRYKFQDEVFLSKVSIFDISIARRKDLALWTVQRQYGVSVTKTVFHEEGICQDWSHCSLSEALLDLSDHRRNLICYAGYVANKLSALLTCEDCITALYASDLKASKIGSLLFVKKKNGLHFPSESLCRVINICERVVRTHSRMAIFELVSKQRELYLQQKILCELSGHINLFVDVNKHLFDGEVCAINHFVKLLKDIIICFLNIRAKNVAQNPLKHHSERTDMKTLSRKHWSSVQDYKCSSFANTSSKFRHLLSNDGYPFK
UniProt Q9H568: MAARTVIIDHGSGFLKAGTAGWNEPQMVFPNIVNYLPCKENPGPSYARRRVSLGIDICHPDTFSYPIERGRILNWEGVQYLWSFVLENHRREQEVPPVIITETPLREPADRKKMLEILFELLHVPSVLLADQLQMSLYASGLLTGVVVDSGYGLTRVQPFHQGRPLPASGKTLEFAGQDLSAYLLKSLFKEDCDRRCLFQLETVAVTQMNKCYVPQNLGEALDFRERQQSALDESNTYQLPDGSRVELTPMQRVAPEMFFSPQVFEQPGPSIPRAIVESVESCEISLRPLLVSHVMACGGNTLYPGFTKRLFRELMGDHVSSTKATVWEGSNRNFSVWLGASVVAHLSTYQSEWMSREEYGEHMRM
UniProt Q9H8W3: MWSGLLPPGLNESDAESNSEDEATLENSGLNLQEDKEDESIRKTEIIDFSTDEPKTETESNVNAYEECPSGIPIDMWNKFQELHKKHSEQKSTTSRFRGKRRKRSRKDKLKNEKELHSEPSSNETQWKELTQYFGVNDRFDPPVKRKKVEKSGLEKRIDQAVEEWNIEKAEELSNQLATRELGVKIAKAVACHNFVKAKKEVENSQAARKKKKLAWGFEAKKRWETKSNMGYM
UniProt Q9H9A6: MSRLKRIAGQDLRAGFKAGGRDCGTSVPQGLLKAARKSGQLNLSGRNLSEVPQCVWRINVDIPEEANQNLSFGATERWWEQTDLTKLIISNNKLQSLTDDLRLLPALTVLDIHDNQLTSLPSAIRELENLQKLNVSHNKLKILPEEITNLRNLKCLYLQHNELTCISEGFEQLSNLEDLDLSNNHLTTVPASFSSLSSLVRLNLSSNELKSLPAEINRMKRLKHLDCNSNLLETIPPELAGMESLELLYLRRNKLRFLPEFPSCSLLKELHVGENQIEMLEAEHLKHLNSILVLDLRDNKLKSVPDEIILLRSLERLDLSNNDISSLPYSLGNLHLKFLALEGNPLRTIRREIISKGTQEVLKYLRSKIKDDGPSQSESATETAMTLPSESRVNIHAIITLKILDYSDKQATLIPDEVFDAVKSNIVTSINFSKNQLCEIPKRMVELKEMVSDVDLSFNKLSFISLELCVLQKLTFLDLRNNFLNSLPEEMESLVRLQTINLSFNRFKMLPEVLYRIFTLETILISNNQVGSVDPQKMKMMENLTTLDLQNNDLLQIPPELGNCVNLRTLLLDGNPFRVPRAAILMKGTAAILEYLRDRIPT

The targets below were run with CN[C@@H]1C[C@H]2O[C@@](C)([C@@H]1OC)n1c3ccccc3c3c4c(c5c6ccccc6n2c5c31)C(=O)NC4 [staurosporine] (assay: log2 fold change of tryptic peptide abundance, ligand vs vehicle (limited proteolysis) (log2 ratio); higher = more trypsin-susceptible (destabilized)). Conditions: ligand concentration: 20 uM; sample: K562 cleared lysate; digestion: 4 min, 22 C (HT-PELSA RT4min, Orbitrap Astral).

| Target | log2 fold change |
| --- | --- |
| HMG20A (peptide sequence: YLDEADRDKER, peptide start residue: 152) (UniProt Q9NP66) | -0.242 |
| ZCCHC4 (peptide sequence: FIELPLTQR, peptide start residue: 114) (UniProt Q9H5U6) | 0.22 |
| DDX31 (peptide sequence: NETSFLPAKK, peptide start residue: 152) (UniProt Q9H8H2) | 0.761 |
| UniProt Q9H6R7 (peptide sequence: NLVEMQR, peptide start residue: 567) | -0.312 |
| VEZT (peptide sequence: NKDNSSNEVFPQGAEER, peptide start residue: 673) (UniProt Q9HBM0) | 0.0717 |
| FAM83D (peptide sequence: GTQSTEGSPVSK, peptide start residue: 455) (UniProt Q9H4H8) | -0.264 |
| NT5DC2 (peptide sequence: TGAIIPELER, peptide start residue: 375) (UniProt Q9H857) | -0.568 |
| UniProt Q9H7M9 (peptide sequence: VRHPLSYVAQR, peptide start residue: 259) | 0.0543 |
| ACTR5 (peptide sequence: LLGSTLTSEEKQER, peptide start residue: 284) (UniProt Q9H9F9) | 0.0714 |
| ARFGAP3 (peptide sequence: KPDYEPVENTDEAQKK, peptide start residue: 405) (UniProt Q9NP61) | 0.602 |
| MSL2 (peptide sequence: SLDEAIDMR, peptide start residue: 566) (UniProt Q9HCI7) | -0.214 |
| TMEM165 (peptide sequence: KKDEEFQR, peptide start residue: 199) (UniProt Q9HC07) | 0.169 |
| SH2D2A (peptide sequence: LLEPKPQGCYLVR, peptide start residue: 108) (UniProt Q9NP31) | 0.523 |
| VTA1 (peptide sequence: ATYIHNCLK, peptide start residue: 149) (UniProt Q9NP79) | 0.338 |
| UniProt Q9H4M7 (peptide sequence: RGPPSEAGGGKPPR, peptide start residue: 299) | 0.372 |
| UBN1 (peptide sequence: NFTPPSPFANK, peptide start residue: 816) (UniProt Q9NPG3) | 0.176 |
| CWC22 (peptide sequence: LKDETLQPFFEGLLPR, peptide start residue: 603) (UniProt Q9HCG8) | 0.312 |
| ZNF335 (peptide sequence: CPDCPFSAR, peptide start residue: 1049) (UniProt Q9H4Z2) | -0.285 |
| SPC25 (peptide sequence: MVEMFLEYQNQISR, peptide start residue: 57) (UniProt Q9HBM1) | -0.703 |
| THAP9 (peptide sequence: DLALWTVQR, peptide start residue: 668) (UniProt Q9H5L6) | -0.656 |
| ACTL8 (peptide sequence: ENPGPSYAR, peptide start residue: 40) (UniProt Q9H568) | -0.152 |
| UniProt Q9NPL8 (peptide sequence: YSGETVQER, peptide start residue: 212) | -0.35 |
| COPRS (peptide sequence: GTQSIPNDSPAR, peptide start residue: 58) (UniProt Q9NQ92) | -0.0593 |
| UniProt Q9H8W3 (peptide sequence: AVACHNFVK, peptide start residue: 189) | -0.438 |
| SCPEP1 (peptide sequence: AGHMVPSDQGDMALK, peptide start residue: 429) (UniProt Q9HB40) | -0.178 |
| LRRC40 (peptide sequence: NLSEVPQCVWR, peptide start residue: 47) (UniProt Q9H9A6) | 0.468 |
| SFXN1 (peptide sequence: QAITQVVVSR, peptide start residue: 224) (UniProt Q9H9B4) | 0.154 |
| UCK1 (peptide sequence: SHLESSSRPH, peptide start residue: 268) (UniProt Q9HA47) | 0.198 |
| UniProt Q9HAH7 (peptide sequence: TPGSDKERPVER, peptide start residue: 246) | 0.235 |

Given with tabs: part of the list above
Target	log2 fold change
UniProt Q9H6R7 (peptide sequence: NLVEMQR, peptide start residue: 567)	-0.312
CWC22 (peptide sequence: LKDETLQPFFEGLLPR, peptide start residue: 603) (UniProt Q9HCG8)	0.312
SPC25 (peptide sequence: MVEMFLEYQNQISR, peptide start residue: 57) (UniProt Q9HBM1)	-0.703
UniProt Q9NPL8 (peptide sequence: YSGETVQER, peptide start residue: 212)	-0.35
LRRC40 (peptide sequence: NLSEVPQCVWR, peptide start residue: 47) (UniProt Q9H9A6)	0.468
UCK1 (peptide sequence: SHLESSSRPH, peptide start residue: 268) (UniProt Q9HA47)	0.198
